Laboratory results taken from patent US10220022B2, “Compositions and methods employing Wolbachia FtsZ as a target for Albendazole sulfone” (The Regents of the University of California, priority 2011, dated 2019).

Tested on: Wolbachia-infected JW18 cells
Test: High-throughput screen for compounds reducing Wolbachia infection of JW18 cells
Format: cell-based, Drosophila
Details: 100 uM per well, 5-day incubation at 25 C, 3 replicates
Experimental: Cells were plated in 384-well, clear bottom plates (Griener Bio-one) pre-coated with 0.5 mg/mL Concanavalin A. JW18 cells were added to 22 columns, and JW18TET cells were added to the remaining 2 columns at a dilution of 6500 cells per well. After the cells adhered to the plates, compounds were transferred into 20 columns of JW18 cells in the center of the plate using a Janus MDT pin tool. The final concentration of compound was 100 uM per well. All treatments were distributed into 3 plate replicates.
After a 5-day incubation with the compounds at 25 C, the cells were prepared for imaging. […]
Stained treatment plates were imaged using the MetaExpress Micro system (Molecular Devices, Sunnyvale Calif.). […] These images were next analyzed using customized journaling software provided by Molecular Devices. The journal first masks any areas where clumps of cells are detected, based upon intensity of the Jupiter-GFP. […] A threshold for DAPI fluorescence detection is set to detect as much Wolbachia as possible in JW18 control cells while minimizing detection of background DAPI signal in JW18TET control cells. Then this cytoplasmic DAPI level, read to indicate Wolbachia, is scored in the cytoplasm of individual cells to determine whether each cell is infected with Wolbachia. The cutoff value distinguishing “infected” from “uninfected” cells is 4000-5000 fluorescence units per cell. […]

CCN(CC)c1ccc2cc3ccc(=[N+](CC)CC)cc-3oc2c1.[Cl-] [Pyronin B] was tested, and the “reduction of Wolbachia-infection frequency (screen hit)” value was “hits”.
